Data reported in patent US20230348578A1, “CONFORMATION-SPECIFIC ANTIBODIES THAT BIND TAU PROTEIN AND USES THEREOF” (Beth Israel Deaconess Medical Center, Inc., priority 2020, published 2023).
Results are given in words; binding and its absence hold for the method and conditions named. Some results given as binding are weak or reduced against the parent protein; the word gives no strength.

The chains behind the UniProt entries cited, without tags or fusion partners. Where a name states a change or a piece, a line headed by the entry shows the natural chain unless it says otherwise. A line that says so, or that is headed by a name, gives the form on record, which may keep a tag or linker.
cis P-tau, mouse (P10637, form named): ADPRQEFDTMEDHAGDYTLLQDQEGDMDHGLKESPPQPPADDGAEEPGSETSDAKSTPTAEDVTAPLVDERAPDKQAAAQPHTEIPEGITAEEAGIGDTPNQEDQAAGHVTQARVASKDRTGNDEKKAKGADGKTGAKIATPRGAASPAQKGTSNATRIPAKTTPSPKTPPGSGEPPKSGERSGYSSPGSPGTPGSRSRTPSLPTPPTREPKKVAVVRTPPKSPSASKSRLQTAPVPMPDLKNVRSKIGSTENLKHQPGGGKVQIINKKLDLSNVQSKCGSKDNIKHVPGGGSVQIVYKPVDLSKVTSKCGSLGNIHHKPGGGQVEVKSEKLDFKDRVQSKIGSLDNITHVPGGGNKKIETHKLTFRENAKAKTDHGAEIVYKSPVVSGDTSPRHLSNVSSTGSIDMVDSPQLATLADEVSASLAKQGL

B1: Cis-mAb HT2 (humanized) (antibody, V domains shown)
VH: QVQLVQSGAEVKKPGASVKMSCKASGYTFTSYWIHWVKQRPGQGLEWIGVIDPSDSYTRYNQKFKGRATLTVDTSASTAYMELSSLRSEDTAVYYCTTWEVDYWGQGTLVTVSS
VL: DVVMTQSPLSLPVTLGQPASISCRSSQSLVHSDGNTYLHWYLQKPGQSPQLLIYKVSNRFSGVPDRFSGSGSGTDFTLKISRVEAEDVGVYFCSQSTHVPWTFGGGTKVEIK
B2: Cis-mAb HT10 (humanized) (antibody, V domains shown)
VH: QVQLVQSGAEVKKPGASVKMSCKASGYTFTSYWIHWVKQRPGQGLEWIGVIDPSDSYTRYNQKFKGRATLTVDTSASTAYMELSSLRSEDTAVYYCTTWEVDYWGQGTLVTVSS
VL: DVVMTQSPLSLPVTLGQPASISCRSSQSLVHSDGNTYLHWYLQKPGQSPQLLIYKVSNRFSGVPDRFSGSGSGTDFTLKISRVEAEDVGVYYCSQSTHVPWTFGGGTKVEIK
B3: Cis-mAb HT13 (mouse-human chimera, control) (antibody, V domains shown)
VH: QVQLQQPGAELVKPGASVKMSCKASGYTFTSYWIHWVKQRPGQGLEWIGVIDPSDSYTRYNQKFKGKATLTVDTSSSTAYMQLSSLTSEDSAVYYCTTWEVDYWGQGTTLTVSS
VL: DVVMTQTPLSLPVSLGDQASISCRSSQSLVHSDGNTYLHWYLQKPGQSPKLLIYKVSNRFSGVPDRFSGSGSGTDFTLKISRLEAEDLGVYFCSQSTHVPWTFGGGTKLEIK

The binders below were run against cis P-tau, mouse (mouse) (UniProt P10637) (assay: immunoblot of whole brain lysates of tau +/+, tau -/- and hTau transgenic mice, probed with the antibody).
B1 was tested, and the binding was “binds”.
B2 was tested, and the binding was “binds”.
B3 was tested, and the binding was “binds”.
